No constants are given. Whether binding was seen depends on the method and setting. For some of these results: In cells and extracts the contact can be indirect. Some results given as binding are weak or reduced against the parent protein; the word gives no strength. Where a sequence is shown, tags or fusion partners need not be part of it. One block for each binder: values may come before it.
Key:
[1] = molecular target: T1, APS1 (ATP sulfurylase), yeast two-hybrid fusion (A. thaliana), Q9LIK9; assay: two-hybrid; Yeast Y2HGold or PJ69-4a; pDEST22 (GAL4 AD) and pDEST32 (GAL4 BD); growth on -LTH + 3 mM or 5 mM 3-AT or on -LTA; 30°C, or room temperature for longer exposures; conditions: remark: other sources report otherwise
T1 chain: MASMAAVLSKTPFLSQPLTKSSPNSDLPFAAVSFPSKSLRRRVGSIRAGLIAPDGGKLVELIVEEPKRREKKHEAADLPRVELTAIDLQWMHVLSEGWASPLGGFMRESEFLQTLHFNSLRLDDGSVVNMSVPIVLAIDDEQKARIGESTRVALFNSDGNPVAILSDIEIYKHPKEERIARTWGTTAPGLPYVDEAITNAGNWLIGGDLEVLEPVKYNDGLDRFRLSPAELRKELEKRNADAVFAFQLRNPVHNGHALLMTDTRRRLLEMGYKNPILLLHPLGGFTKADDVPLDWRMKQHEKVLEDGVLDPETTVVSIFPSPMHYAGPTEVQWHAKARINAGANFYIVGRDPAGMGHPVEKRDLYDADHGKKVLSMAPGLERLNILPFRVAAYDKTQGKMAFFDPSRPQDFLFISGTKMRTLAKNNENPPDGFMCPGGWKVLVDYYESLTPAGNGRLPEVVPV

[2] = molecular target: T2, RAF2/SDIRIP1, yeast two-hybrid fusion (A. thaliana) (UniProt Q9LU63); assay: as above
T2 sequence: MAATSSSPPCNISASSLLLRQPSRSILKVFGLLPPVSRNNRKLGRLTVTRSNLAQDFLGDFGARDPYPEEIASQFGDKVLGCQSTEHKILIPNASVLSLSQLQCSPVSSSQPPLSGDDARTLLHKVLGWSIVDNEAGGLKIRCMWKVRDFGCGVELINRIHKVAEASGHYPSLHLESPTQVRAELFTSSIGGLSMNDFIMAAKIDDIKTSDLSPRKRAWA

[3] = molecular target: T3, CAT2 (peroxisomal catalase), yeast two-hybrid fusion (A. thaliana) (UniProt P25819); assay: as above
T3 sequence: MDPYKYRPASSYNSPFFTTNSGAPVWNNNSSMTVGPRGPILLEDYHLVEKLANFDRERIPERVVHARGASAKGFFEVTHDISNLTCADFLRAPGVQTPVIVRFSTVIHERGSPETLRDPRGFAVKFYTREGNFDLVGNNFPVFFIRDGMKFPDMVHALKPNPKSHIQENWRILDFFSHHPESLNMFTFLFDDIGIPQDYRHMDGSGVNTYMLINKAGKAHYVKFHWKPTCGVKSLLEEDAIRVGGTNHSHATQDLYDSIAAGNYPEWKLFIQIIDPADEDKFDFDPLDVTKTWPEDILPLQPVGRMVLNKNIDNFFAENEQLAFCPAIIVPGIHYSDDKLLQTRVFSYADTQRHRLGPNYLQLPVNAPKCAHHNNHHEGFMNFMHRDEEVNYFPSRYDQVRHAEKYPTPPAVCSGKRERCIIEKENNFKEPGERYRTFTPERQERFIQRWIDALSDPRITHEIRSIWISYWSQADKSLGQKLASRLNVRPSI

[4] = molecular target: T4, NBR1 (selective autophagy cargo receptor), yeast two-hybrid fusion (A. thaliana) (UniProt Q9SB64); assay: as above
T4 sequence: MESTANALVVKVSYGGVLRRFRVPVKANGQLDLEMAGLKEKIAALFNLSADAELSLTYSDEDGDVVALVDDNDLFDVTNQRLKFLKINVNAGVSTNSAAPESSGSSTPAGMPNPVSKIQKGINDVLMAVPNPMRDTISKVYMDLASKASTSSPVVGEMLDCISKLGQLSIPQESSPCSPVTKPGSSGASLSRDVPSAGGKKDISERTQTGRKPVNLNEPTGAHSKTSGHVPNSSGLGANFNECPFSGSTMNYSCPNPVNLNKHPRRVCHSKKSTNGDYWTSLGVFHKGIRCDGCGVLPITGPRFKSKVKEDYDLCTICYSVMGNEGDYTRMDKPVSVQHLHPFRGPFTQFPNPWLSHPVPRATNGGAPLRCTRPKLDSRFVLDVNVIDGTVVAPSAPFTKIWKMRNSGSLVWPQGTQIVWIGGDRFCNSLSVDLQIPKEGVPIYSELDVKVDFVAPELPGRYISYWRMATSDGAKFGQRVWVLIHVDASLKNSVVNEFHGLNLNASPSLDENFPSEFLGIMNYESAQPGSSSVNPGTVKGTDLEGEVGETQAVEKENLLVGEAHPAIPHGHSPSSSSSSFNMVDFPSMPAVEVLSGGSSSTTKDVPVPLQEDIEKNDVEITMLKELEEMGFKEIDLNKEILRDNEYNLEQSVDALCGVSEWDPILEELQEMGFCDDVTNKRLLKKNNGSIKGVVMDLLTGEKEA

[5] = molecular target: T5, LSU1 (RESPONSE TO LOW SULFUR 1), yeast two-hybrid fusion (A. thaliana) (UniProt Q9SCK1); assay: as above
T5 sequence: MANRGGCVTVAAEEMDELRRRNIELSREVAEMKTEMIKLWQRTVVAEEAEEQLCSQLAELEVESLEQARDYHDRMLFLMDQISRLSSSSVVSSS

[6] = molecular target: T6, RAF2/SDIRIP1, BiFC fusion (A. thaliana) (UniProt Q9LU63); assay: split reporter; BiFC in planta: N. benthamiana leaves agroinfiltrated with pSITE-nEYFP-C1 and pSITE-cEYFP-C1 fusions, confocal microscopy three days after agroinfiltration
T6 sequence: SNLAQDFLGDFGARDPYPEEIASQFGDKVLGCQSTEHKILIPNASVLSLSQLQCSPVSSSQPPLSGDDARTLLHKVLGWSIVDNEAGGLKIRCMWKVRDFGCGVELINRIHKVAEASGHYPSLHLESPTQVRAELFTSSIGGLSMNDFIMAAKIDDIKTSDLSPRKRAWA

[7] = molecular target: T7, NBR1 (selective autophagy cargo receptor), BiFC fusion (A. thaliana) (UniProt Q9SB64); assay: as above
T7 sequence: T4 sequence

[8] = molecular target: T8, LSU4, BiFC fusion (nYFP-LSU4 or cYFP-LSU4) (A. thaliana) (UniProt Q8L8S2); assay: as above
T8 sequence: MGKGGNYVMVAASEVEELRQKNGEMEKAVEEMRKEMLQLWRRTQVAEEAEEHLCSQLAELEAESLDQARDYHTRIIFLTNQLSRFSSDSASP

[9] = molecular target: T9, APS1 (ATP sulfurylase), BiFC fusion (A. thaliana) (UniProt Q9LIK9); assay: as above
T9 sequence: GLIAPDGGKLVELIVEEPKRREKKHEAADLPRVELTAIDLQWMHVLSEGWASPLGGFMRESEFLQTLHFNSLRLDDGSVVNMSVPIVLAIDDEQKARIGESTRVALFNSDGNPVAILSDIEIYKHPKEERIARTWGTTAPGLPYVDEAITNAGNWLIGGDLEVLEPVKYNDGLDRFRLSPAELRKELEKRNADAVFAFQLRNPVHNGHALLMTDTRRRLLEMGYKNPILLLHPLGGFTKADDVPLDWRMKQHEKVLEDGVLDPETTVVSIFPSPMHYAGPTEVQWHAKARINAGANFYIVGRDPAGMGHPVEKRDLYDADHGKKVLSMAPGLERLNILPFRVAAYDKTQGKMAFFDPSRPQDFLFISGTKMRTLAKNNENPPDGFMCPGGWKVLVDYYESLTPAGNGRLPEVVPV

[10] = molecular target: T10, CAT2 (peroxisomal catalase), BiFC fusion (A. thaliana) (UniProt P25819); assay: as above
T10 sequence: T3 sequence

[11] = molecular target: T11, LSU2, BiFC fusion (nYFP-LSU2 or cYFP-LSU2) (A. thaliana) (UniProt Q9FIR9); assay: as above
T11 sequence: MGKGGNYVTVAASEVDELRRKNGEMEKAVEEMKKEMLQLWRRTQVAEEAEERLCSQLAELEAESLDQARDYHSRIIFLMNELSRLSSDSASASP

[12] = molecular target: T12, LSU2 (RESPONSE TO LOW SULFUR 2), yeast two-hybrid fusion (A. thaliana) (UniProt Q9FIR9); assay: two-hybrid; Yeast Y2HGold or PJ69-4a; pDEST22 (GAL4 AD) and pDEST32 (GAL4 BD); growth on -LTH + 3 mM or 5 mM 3-AT or on -LTA; 30°C, or room temperature for longer exposures
T12 sequence: T11 sequence

- binding [1]: no binding
B3: LSU3 (RESPONSE TO LOW SULFUR 3), yeast two-hybrid fusion, Q9SCK2 1-97 (protein)
chain: MGKGGGYVTVAAEEVEELRRRNGELEREMEEMKKEMVQLWRRTVVAEEAEERLCSQLAELEVESLDQARDYHSRIVFLMDQISRLSSSSLEVVVTNS

- binding [6]: binds
- binding [7]: binds
- binding [8]: binds
- binding [9]: binds
- binding [10]: binds
B4: LSU3, BiFC fusion (nYFP-LSU3 or cYFP-LSU3) (protein, UniProt Q9SCK2 1-97)
chain: B3 chain

- binding [6]: binds
- binding [7]: binds
- binding [9]: binds
- binding [10]: binds
B5: LSU4, BiFC fusion (nYFP-LSU4 or cYFP-LSU4) (protein, UniProt Q8L8S2 1-92)
chain: T8 sequence

- binding [1]: no binding
B6: LSU4 (RESPONSE TO LOW SULFUR 4), yeast two-hybrid fusion, Q8L8S2 1-92 (protein)
chain: T8 sequence

The remaining lines, values behind:

B1: LSU1 (RESPONSE TO LOW SULFUR 1), yeast two-hybrid fusion, Q9SCK1 1-94 (protein)
chain: T5 sequence
- binding [1]: no binding

B2: LSU3 (RESPONSE TO LOW SULFUR 3), yeast two-hybrid fusion (protein, UniProt Q9SCK2 1-97)
chain: B3 chain
- binding [2]: binds
- binding [3]: binds
- binding [4]: binds
- binding [5]: binds

B7: LSU2, BiFC fusion (nYFP-LSU2 or cYFP-LSU2) (protein, UniProt Q9FIR9 1-94)
chain: T11 sequence
- binding [6]: binds
- binding [7]: binds
- binding [8]: binds
- binding [11]: binds
- binding [9]: binds
- binding [10]: binds

B8: LSU2 (RESPONSE TO LOW SULFUR 2), yeast two-hybrid fusion (protein, UniProt Q9FIR9 1-94)
chain: T11 sequence
- binding [2]: binds weakly
- binding [3]: binds weakly
- binding [4]: binds
- binding [5]: binds
- binding [12]: binds weakly

B9: LSU2 (RESPONSE TO LOW SULFUR 2), yeast two-hybrid fusion, Q9FIR9 1-94 (protein)
chain: T11 sequence
- binding [1]: no binding
